# For part of these data: Shown are results outside the selection of strong results, which stands elsewhere. The rule behind the calls is not given here. Only a part is listed here, and it is no random draw.
# Amino acid sequences for entries named in this document (tags omitted). A change or cut given only in a name is not applied to a line headed by its entry.
# UniProt P41743, whole entry: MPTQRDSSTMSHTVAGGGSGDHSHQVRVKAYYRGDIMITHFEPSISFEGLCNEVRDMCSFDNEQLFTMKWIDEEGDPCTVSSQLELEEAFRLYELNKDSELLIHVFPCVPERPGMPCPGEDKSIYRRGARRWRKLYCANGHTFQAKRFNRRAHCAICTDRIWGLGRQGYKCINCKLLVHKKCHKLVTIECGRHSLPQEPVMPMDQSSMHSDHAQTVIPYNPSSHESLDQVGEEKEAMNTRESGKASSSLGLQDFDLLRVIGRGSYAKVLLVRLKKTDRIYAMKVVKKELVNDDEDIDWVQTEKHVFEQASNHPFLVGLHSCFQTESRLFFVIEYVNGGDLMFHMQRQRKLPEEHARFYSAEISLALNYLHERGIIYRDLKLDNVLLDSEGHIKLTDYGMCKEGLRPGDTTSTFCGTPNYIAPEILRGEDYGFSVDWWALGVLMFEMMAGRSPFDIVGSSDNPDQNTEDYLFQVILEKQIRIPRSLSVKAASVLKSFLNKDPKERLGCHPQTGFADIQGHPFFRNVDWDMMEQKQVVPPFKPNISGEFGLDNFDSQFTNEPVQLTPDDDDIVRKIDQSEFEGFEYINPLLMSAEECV
# UniProt Q15139: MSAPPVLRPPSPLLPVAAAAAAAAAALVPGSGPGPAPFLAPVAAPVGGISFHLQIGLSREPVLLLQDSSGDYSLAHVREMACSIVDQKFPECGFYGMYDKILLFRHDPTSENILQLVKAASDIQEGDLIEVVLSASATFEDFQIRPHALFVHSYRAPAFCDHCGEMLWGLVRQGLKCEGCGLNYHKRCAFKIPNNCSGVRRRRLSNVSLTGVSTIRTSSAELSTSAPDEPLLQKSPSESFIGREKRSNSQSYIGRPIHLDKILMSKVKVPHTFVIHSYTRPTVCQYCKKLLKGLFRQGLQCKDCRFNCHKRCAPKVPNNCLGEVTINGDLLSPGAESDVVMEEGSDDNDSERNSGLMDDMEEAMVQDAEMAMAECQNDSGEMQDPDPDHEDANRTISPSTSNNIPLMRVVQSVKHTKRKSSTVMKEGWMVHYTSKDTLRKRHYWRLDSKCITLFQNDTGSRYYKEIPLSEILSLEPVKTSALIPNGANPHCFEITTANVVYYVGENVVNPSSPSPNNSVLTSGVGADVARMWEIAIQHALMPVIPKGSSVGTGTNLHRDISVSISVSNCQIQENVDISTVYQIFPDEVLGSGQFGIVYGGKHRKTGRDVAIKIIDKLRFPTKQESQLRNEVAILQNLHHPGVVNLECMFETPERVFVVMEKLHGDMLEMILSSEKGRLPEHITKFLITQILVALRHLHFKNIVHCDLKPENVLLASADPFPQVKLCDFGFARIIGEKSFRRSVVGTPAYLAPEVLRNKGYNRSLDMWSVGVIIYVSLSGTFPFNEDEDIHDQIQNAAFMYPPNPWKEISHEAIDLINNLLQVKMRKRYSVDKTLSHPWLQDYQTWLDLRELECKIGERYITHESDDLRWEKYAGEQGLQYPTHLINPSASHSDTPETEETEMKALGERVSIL
# UniProt P11309, whole entry, looked up: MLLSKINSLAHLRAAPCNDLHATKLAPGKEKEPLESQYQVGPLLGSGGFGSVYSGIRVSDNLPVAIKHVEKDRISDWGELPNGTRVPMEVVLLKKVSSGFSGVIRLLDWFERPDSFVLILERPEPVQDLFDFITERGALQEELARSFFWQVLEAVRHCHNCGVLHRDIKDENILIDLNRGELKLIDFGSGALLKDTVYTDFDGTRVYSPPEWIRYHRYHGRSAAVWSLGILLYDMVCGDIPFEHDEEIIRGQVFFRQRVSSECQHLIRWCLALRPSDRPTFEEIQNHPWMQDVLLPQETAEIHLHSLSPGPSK
# UniProt Q9P1W9: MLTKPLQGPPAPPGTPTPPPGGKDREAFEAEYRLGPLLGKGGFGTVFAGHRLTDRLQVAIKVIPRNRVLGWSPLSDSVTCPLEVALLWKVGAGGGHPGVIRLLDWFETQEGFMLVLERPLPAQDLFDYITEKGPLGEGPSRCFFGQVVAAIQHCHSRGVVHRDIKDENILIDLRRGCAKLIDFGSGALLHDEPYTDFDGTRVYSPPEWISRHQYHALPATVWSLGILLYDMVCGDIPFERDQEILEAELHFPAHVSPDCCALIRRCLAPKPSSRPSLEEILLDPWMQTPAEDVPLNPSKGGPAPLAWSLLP
# UniProt P53350, whole entry: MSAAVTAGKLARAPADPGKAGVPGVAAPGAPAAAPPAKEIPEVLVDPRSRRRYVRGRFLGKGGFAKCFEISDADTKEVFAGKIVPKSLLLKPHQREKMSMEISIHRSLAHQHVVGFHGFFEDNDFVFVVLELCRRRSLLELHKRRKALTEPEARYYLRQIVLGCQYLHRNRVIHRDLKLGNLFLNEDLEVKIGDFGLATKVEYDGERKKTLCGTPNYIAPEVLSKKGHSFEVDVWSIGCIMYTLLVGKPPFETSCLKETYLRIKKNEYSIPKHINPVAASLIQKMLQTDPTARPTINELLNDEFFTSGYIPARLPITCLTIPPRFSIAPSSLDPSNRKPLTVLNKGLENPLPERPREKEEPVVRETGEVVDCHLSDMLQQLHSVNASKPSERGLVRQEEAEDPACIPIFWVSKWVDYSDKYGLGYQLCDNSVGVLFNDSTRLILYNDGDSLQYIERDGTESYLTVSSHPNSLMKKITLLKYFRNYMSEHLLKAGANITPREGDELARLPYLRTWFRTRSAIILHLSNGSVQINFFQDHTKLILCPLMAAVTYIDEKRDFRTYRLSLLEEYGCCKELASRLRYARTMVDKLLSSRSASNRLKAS
# UniProt Q9H4B4: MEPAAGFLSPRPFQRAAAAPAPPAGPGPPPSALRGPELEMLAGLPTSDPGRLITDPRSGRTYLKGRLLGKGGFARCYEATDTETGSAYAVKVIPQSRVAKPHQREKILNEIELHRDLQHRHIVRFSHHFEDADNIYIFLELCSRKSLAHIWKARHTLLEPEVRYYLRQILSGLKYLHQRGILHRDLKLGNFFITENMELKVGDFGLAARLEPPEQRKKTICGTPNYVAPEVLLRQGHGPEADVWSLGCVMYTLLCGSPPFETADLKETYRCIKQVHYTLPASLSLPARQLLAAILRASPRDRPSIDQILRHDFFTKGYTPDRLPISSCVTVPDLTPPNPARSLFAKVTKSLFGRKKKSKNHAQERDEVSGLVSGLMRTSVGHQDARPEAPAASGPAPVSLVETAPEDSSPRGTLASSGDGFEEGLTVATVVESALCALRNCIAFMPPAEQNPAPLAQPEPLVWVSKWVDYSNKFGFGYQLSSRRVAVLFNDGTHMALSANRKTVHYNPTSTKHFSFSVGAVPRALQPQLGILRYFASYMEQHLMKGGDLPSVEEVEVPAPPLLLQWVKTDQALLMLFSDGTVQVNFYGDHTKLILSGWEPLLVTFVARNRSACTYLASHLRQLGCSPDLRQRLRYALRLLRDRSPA
# UniProt P51817: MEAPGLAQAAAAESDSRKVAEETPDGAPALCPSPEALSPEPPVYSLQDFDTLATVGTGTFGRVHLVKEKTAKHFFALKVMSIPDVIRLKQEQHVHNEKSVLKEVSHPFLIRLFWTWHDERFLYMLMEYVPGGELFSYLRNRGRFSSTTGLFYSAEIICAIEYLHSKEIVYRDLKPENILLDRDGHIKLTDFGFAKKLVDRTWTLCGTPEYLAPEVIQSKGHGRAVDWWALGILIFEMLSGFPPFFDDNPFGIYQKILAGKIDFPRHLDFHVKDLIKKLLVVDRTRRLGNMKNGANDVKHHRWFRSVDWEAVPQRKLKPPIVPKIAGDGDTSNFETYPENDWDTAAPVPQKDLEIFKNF
# UniProt Q13464: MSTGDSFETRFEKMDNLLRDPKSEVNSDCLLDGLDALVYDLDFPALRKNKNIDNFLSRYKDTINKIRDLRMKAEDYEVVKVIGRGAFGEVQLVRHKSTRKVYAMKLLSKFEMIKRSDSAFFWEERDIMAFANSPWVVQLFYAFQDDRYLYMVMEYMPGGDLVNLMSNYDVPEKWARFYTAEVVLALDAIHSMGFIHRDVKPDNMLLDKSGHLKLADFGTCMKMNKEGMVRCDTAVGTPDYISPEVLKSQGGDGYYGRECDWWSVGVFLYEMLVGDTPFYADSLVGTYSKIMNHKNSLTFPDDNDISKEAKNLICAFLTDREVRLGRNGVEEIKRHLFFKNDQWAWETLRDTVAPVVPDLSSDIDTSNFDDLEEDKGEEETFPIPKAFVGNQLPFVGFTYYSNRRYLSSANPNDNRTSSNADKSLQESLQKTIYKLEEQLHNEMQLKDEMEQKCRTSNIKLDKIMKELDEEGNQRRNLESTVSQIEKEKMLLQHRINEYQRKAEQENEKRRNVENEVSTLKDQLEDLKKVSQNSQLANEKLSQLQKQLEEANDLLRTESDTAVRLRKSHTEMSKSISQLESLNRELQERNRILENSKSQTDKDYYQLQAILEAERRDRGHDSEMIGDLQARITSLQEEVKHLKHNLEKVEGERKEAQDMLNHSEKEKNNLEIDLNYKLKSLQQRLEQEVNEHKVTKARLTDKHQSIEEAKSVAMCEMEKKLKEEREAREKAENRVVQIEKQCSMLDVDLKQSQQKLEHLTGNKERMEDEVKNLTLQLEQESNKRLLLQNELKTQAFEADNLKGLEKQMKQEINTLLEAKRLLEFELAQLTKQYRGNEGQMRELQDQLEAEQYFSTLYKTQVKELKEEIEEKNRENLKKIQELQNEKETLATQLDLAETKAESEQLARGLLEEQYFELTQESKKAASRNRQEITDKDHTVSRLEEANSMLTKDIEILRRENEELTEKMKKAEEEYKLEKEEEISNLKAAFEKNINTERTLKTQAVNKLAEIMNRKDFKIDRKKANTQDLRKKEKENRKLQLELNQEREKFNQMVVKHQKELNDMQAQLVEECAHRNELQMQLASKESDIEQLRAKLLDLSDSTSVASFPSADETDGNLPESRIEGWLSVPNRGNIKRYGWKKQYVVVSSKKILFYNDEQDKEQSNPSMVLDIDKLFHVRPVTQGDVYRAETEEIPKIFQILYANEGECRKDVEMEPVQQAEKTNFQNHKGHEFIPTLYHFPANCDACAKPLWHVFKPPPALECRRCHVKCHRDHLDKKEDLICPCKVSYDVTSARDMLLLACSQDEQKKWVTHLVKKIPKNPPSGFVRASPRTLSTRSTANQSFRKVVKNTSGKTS
# UniProt Q15418, whole entry: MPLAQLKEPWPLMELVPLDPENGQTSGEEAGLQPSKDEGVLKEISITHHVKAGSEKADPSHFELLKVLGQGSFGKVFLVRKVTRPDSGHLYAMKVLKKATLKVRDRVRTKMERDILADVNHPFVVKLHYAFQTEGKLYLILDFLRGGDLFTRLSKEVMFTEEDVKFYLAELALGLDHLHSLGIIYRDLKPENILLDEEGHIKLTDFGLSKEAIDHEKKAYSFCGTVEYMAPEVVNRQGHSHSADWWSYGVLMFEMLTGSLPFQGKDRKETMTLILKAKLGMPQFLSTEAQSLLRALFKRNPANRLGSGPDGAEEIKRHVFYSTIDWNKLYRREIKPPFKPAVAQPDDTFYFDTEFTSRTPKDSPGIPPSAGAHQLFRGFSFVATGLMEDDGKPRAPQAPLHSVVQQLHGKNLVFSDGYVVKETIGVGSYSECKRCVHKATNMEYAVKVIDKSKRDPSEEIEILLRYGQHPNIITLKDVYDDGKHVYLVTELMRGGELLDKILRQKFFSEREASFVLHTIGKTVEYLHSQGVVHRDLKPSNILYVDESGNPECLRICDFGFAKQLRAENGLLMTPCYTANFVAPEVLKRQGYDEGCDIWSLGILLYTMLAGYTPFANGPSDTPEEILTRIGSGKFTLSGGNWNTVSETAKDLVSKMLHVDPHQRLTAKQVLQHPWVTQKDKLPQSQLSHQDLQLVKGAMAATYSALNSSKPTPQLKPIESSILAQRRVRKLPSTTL
# UniProt Q16539, whole entry: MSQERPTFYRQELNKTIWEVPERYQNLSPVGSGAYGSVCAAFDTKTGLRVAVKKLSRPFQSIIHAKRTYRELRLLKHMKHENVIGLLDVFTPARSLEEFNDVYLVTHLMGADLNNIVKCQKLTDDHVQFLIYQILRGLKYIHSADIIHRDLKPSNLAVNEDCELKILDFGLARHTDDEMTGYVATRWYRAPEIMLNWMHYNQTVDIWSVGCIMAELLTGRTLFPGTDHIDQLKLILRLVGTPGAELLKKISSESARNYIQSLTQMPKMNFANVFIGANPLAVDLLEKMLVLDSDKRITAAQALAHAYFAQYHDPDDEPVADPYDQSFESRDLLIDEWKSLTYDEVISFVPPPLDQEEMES
# UniProt Q15759, whole entry: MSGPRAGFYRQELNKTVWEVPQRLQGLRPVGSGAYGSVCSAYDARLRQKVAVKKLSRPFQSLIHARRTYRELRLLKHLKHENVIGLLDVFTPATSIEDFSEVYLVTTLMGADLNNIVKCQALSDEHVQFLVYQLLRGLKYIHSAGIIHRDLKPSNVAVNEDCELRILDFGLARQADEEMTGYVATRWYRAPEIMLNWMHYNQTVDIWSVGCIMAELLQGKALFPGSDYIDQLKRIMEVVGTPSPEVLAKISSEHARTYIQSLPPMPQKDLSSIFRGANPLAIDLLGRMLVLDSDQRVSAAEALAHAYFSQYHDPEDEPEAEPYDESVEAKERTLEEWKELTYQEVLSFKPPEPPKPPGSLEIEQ
# Key:
# [1] = target: Protein kinase C iota type (Homo sapiens) (UniProt P41743); settings: at 10 µM
# [2] = target: Serine/threonine-protein kinase D1 (Homo sapiens) (UniProt Q15139); settings: at 1 µM
# [3] = target: Serine/threonine-protein kinase D1 (Homo sapiens) (UniProt Q15139); settings: at 10 µM
# [4] = target: Serine/threonine-protein kinase D2 (Homo sapiens) (UniProt Q9BZL6); settings: at 1 µM
# [5] = target: Serine/threonine-protein kinase D2 (Homo sapiens) (UniProt Q9BZL6); settings: at 10 µM
# [6] = target: T1, cGMP-dependent protein kinase 1 (Homo sapiens) (UniProt Q13976); settings: at 1 µM
# T1 sequence (whole entry): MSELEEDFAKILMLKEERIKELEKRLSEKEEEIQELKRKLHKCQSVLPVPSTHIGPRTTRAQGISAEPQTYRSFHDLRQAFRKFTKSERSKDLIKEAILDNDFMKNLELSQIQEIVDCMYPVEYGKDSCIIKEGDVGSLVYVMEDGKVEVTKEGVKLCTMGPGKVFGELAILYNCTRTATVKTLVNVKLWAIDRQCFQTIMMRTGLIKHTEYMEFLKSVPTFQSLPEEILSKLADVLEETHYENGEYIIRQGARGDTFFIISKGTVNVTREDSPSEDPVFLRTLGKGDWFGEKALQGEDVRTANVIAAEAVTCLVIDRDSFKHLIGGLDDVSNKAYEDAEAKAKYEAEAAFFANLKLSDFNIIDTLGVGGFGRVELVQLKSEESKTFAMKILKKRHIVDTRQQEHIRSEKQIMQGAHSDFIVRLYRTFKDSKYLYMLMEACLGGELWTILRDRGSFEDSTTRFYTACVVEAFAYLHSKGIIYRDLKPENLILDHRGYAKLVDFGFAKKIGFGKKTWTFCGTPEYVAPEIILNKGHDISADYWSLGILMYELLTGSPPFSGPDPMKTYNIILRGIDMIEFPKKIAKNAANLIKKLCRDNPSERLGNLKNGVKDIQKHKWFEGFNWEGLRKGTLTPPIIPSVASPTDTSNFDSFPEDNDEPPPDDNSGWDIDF
# [7] = target: T1, cGMP-dependent protein kinase 1 (Homo sapiens); settings: at 10 µM
# [8] = target: T1, cGMP-dependent protein kinase 1 (Homo sapiens); settings: at 1 µM; remark: listed apart in the source
# [9] = target: T1, cGMP-dependent protein kinase 1 (Homo sapiens); settings: at 10 µM; remark: listed apart in the source
# [10] = target: MAP kinase-activated protein kinase 5 (Homo sapiens) (UniProt Q8IW41); settings: at 1 µM
# [11] = target: MAP kinase-activated protein kinase 5 (Homo sapiens) (UniProt Q8IW41); settings: at 10 µM
# [12] = target: Serine/threonine-protein kinase N2 (Homo sapiens) (UniProt Q16513); settings: at 1 µM
# [13] = target: Serine/threonine-protein kinase N2 (Homo sapiens) (UniProt Q16513); settings: at 10 µM
# [14] = target: Tyrosine-protein kinase FRK (Homo sapiens) (UniProt P42685); settings: at 1 µM
# [15] = target: Tyrosine-protein kinase FRK (Homo sapiens) (UniProt P42685); settings: at 10 µM
# [16] = target: Phosphorylase b kinase gamma catalytic chain, liver/testis isoform (Homo sapiens) (UniProt P15735); settings: at 1 µM
# [17] = target: Phosphorylase b kinase gamma catalytic chain, liver/testis isoform (Homo sapiens) (UniProt P15735); settings: at 10 µM
# [18] = target: Serine/threonine-protein kinase pim-1 (Homo sapiens) (UniProt P11309); settings: at 1 µM
# [19] = target: Serine/threonine-protein kinase pim-1 (Homo sapiens) (UniProt P11309); settings: at 10 µM
# [20] = target: Serine/threonine-protein kinase pim-2 (Homo sapiens) (UniProt Q9P1W9); settings: at 1 µM
# [21] = target: Serine/threonine-protein kinase pim-2 (Homo sapiens) (UniProt Q9P1W9); settings: at 10 µM
# [22] = target: Serine/threonine-protein kinase pim-3 (Homo sapiens) (UniProt Q86V86); settings: at 1 µM
# [23] = target: Serine/threonine-protein kinase pim-3 (Homo sapiens) (UniProt Q86V86); settings: at 10 µM
# [24] = target: Serine/threonine-protein kinase PLK1 (Homo sapiens) (UniProt P53350); settings: at 1 µM
# [25] = target: Serine/threonine-protein kinase PLK1 (Homo sapiens) (UniProt P53350); settings: at 10 µM
# [26] = target: Serine/threonine-protein kinase PLK3 (Homo sapiens) (UniProt Q9H4B4); settings: at 1 µM
# [27] = target: Serine/threonine-protein kinase PLK3 (Homo sapiens) (UniProt Q9H4B4); settings: at 10 µM
# [28] = target: cAMP-dependent protein kinase catalytic subunit PRKX (Homo sapiens) (UniProt P51817); settings: at 1 µM
# [29] = target: cAMP-dependent protein kinase catalytic subunit PRKX (Homo sapiens) (UniProt P51817); settings: at 10 µM
# [30] = target: Protein-tyrosine kinase 2-beta (Homo sapiens) (UniProt Q14289); settings: at 1 µM
# [31] = target: Protein-tyrosine kinase 2-beta (Homo sapiens) (UniProt Q14289); settings: at 10 µM
# [32] = target: Receptor-interacting serine/threonine-protein kinase 2 (Homo sapiens) (UniProt O43353); settings: at 1 µM
# [33] = target: Receptor-interacting serine/threonine-protein kinase 2 (Homo sapiens) (UniProt O43353); settings: at 10 µM
# [34] = target: Rho-associated protein kinase 1 (Homo sapiens) (UniProt Q13464); settings: at 1 µM
# [35] = target: Rho-associated protein kinase 1 (Homo sapiens) (UniProt Q13464); settings: at 10 µM
# [36] = target: Rho-associated protein kinase 2 (Homo sapiens) (UniProt O75116); settings: at 1 µM
# [37] = target: Rho-associated protein kinase 2 (Homo sapiens) (UniProt O75116); settings: at 10 µM
# [38] = target: Proto-oncogene tyrosine-protein kinase receptor Ret (Homo sapiens) (UniProt P07949); settings: at 1 µM
# [39] = target: Proto-oncogene tyrosine-protein kinase receptor Ret (Homo sapiens) (UniProt P07949); settings: at 10 µM
# [40] = target: Macrophage-stimulating protein receptor (Homo sapiens) (UniProt Q04912); settings: at 1 µM
# [41] = target: Macrophage-stimulating protein receptor (Homo sapiens) (UniProt Q04912); settings: at 10 µM
# [42] = target: Proto-oncogene tyrosine-protein kinase ROS (Homo sapiens) (UniProt P08922); settings: at 1 µM
# [43] = target: Proto-oncogene tyrosine-protein kinase ROS (Homo sapiens) (UniProt P08922); settings: at 10 µM
# [44] = target: Tyrosine-protein kinase receptor TYRO3 (Homo sapiens) (UniProt Q06418); settings: at 1 µM
# [45] = target: Tyrosine-protein kinase receptor TYRO3 (Homo sapiens) (UniProt Q06418); settings: at 10 µM
# [46] = target: Ribosomal protein S6 kinase alpha-1 (Homo sapiens) (UniProt Q15418); settings: at 1 µM
# [47] = target: Ribosomal protein S6 kinase alpha-1 (Homo sapiens) (UniProt Q15418); settings: at 10 µM
# [48] = target: Ribosomal protein S6 kinase alpha-3 (Homo sapiens) (UniProt P51812); settings: at 1 µM
# [49] = target: Ribosomal protein S6 kinase alpha-3 (Homo sapiens) (UniProt P51812); settings: at 10 µM
# [50] = target: Ribosomal protein S6 kinase alpha-2 (Homo sapiens) (UniProt Q15349); settings: at 1 µM
# [51] = target: Ribosomal protein S6 kinase alpha-2 (Homo sapiens) (UniProt Q15349); settings: at 10 µM
# [52] = target: Ribosomal protein S6 kinase alpha-6 (Homo sapiens) (UniProt Q9UK32); settings: at 1 µM
# [53] = target: Ribosomal protein S6 kinase alpha-6 (Homo sapiens) (UniProt Q9UK32); settings: at 10 µM
# [54] = target: Mitogen-activated protein kinase 14 (Homo sapiens) (UniProt Q16539); settings: at 1 µM
# [55] = target: Mitogen-activated protein kinase 14 (Homo sapiens) (UniProt Q16539); settings: at 10 µM
# [56] = target: Mitogen-activated protein kinase 11 (Homo sapiens) (UniProt Q15759); settings: at 1 µM
# [57] = target: Mitogen-activated protein kinase 11 (Homo sapiens) (UniProt Q15759); settings: at 10 µM
compound,measurement,setting,value
O=C1Nc2ccc(-c3cccnc3)cc2/C1=C\c1ccc[nH]1,residual activity,[1],77%
same,residual activity,[2],6%
same,residual activity,[3],1%
same,residual activity,[4],25%
same,residual activity,[5],4%
same,residual activity,[6],65%
same,residual activity,[7],16%
same,residual activity,[8],39%
same,residual activity,[9],7%
same,residual activity,[10],43%
same,residual activity,[11],7%
same,residual activity,[12],15%
same,residual activity,[13],2%
same,residual activity,[14],69%
same,residual activity,[15],35%
same,residual activity,[16],22%
same,residual activity,[17],3%
same,residual activity,[18],35%
same,residual activity,[19],2%
same,residual activity,[20],13%
same,residual activity,[21],5%
same,residual activity,[22],63%
same,residual activity,[23],22%
same,residual activity,[24],77%
same,residual activity,[25],55%
same,residual activity,[26],inactive: 92%
same,residual activity,[27],86%
same,residual activity,[28],37%
same,residual activity,[29],4%
same,residual activity,[30],84%
same,residual activity,[31],25%
same,residual activity,[32],30%
same,residual activity,[33],7%
same,residual activity,[34],86%
same,residual activity,[35],24%
same,residual activity,[36],10%
same,residual activity,[37],1%
same,residual activity,[38],13%
same,residual activity,[39],0%
same,residual activity,[40],67%
same,residual activity,[41],7%
same,residual activity,[42],85%
same,residual activity,[43],80%
same,residual activity,[44],55%
same,residual activity,[45],12%
same,residual activity,[46],10%
same,residual activity,[47],2%
same,residual activity,[48],11%
same,residual activity,[49],1%
same,residual activity,[50],3%
same,residual activity,[51],1%
same,residual activity,[52],10%
same,residual activity,[53],1%
same,residual activity,[54],87%
same,residual activity,[55],67%
same,residual activity,[56],83%
same,residual activity,[57],73%
